Test results as given in patent publication US20190292264A1.
No constants are given. Whether binding was seen depends on the method and setting. Some binding calls cover weakened binding; strength is not graded here.

Chains of the proteins cited; added tags and fusions are not shown. Lines headed by an entry give the natural chain unless they say otherwise; changes in a name come on top.
UniProt P12830: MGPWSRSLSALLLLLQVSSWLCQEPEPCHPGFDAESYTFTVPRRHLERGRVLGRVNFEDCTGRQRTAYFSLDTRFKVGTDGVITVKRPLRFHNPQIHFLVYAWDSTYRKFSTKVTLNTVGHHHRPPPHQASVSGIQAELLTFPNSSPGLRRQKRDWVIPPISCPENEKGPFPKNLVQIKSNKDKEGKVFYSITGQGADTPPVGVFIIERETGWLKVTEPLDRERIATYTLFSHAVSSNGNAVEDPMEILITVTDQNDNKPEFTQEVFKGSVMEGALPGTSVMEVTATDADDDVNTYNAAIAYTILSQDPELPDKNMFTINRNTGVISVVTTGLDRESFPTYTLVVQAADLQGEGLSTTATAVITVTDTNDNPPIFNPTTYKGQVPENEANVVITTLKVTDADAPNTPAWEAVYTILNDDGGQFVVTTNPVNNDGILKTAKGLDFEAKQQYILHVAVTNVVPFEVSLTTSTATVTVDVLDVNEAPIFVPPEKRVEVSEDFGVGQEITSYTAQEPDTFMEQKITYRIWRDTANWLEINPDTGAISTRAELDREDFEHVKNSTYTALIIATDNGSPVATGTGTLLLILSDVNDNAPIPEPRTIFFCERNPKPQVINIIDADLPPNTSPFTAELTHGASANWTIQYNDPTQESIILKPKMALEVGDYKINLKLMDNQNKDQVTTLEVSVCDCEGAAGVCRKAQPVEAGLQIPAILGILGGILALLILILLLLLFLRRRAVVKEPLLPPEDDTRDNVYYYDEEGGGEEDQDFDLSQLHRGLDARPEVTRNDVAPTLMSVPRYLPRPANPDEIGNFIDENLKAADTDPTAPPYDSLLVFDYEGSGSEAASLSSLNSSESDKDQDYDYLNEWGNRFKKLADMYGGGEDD

Target: T1, human KLRG1, plate-coated (Example 21) (human) (UniProt Q96E93)
T1 sequence (looked up): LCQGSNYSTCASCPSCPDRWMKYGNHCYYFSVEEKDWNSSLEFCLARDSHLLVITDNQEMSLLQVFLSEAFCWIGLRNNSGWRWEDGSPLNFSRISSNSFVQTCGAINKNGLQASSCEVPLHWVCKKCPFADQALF
Assay: ELISA (figure legend)

binding: binds
Substance: recombinant soluble human E-cadherin (from UniProt P12830 155-709) (ligand)
